Results are given in words; binding and its absence hold for the method and conditions named. Binding can be weak; no strength is given.

This note sets out measurements from patent publication US20200392228A1.

Assay [1] has as its target Cyno MAdCAM protein (cyno). Briefly: binding to different species of MAdCAM, scFv format.
In assay [2] the target is Cyno MAdCAM protein (cyno). Briefly: Octet.

B1: MAdCAM antibody Clone ID 6 of Table 6 (scFv) (scFv)
scFv: EVQLLESGGGLVQPGGSLRLSCAASGFTFNNYAFHWVRQAPGKGLEWVSRINSYGTSTTYADSVKGRFTISRDNSKNTLYLQMNSLRAEDTAVYYCAREGPVAGYWYFDLWGQGTLVTVSSGGGGSGGGGSGGGGSGGGGSDIQMTQSPSSLSASVGDRVTITCRASQIIGTNLAWYQQKPGKAPKLLIYGASSLQSGVPSRFSGSGSGTDFTLTISSLQPEDFATYYCQQSYRLPFTFGQGTKVEIK
As for B1, the binding entry in assay [1] and in assay [2] was “binds” in each case.

B2: MAdCAM antibody Clone ID 59 of Table 6 (scFv) (scFv)
scFv: EVQLLESGGGLVQPGGSLRLSCAASGFTFSDFWMHWVRQAPGKGLEWISYISGDSGYTNYADSVKGRFTISRDNSKNTLYLQMNSLRAEDTAVYYCARDRPYYYYMDVWGKGTTVTVSSGGGGSGGGGSGGGGSGGGGSDIQMTQSPSSLSASVGDRVTITCRASQSVSRSLAWYQQKPGKAPKLLIYAASSLQSGVPSRFSGSGSGTDFTLTISSLQPEDFATYYCQQYKSYPVTFGQGTKVEIK
As for B2, the binding result in assay [1] and in assay [2] was “binds” each time.

B3: MAdCAM antibody Clone ID 63 of Table 6 (scFv) (scFv)
scFv: EVQLLESGGGLVKPGGSLRLSCAASGFTFDDYAMHWVRQAPGKGLEWVASITSSSAFIDYAASVKGRFTISRDDSKNTLYLQMNSLKTEDTAVYYCARERVDWNSYFDLWGRGTLVTVSSGGGGSGGGGSGGGGSGGGGSEIVMTQSPATLSVSPGERATLSCRASQGISNSYLAWYQQKPGQAPRLLIYGASTRATGIPARFSGSGSGTEFTLTISSLQSEDFAVYYCQQYYTYPPTFGPGTKVDIK
With B3, the binding entry in assay [1] and in assay [2] was “binds” in each case.
